Screening data, single-dose tests

Mtb cholesterol medium: 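Phenotypic screen: M. tuberculosis growth, cholesterol and DPPC medium, 4 days; the read-out is not stated. Concentration: 50 µM. The record gives no direction; compounds that gave an IC50 in retests scored well above the rest, so higher reads as more growth inhibition. Of about 69,000 compounds tested this way, about 370 (0.54%) reached 50% or more in at least one test.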
Mtb glucose medium: 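Growth of Mycobacterium tuberculosis over 3 days (7H9 medium with glucose and tyloxapol); the read-out is not stated. Compounds at 50 µM. Higher reads as more growth inhibition (inferred: compounds with an IC50 in retests scored well above the rest). Of about 69,000 compounds tested this way, about 760 (1.1%) reached 50% or more in at least one test.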

Each number is a percent effect as filed.
The controls that fix the scale are not given in the record; negative values are as filed.
This is an unselected part of the compounds tested.
Two or more numbers in one place are separate tests of the same structure; such repeats can differ widely.

Result for Cc1cncc(C(=O)N2CCC3(CC2)NC(=O)CC3c2ccccc2)c1.O=C(O)C(F)(F)F (stereo not shown) was Mtb cholesterol medium: -23.38%; Mtb glucose medium: -7.466%.
Result for Cc1nccn1CC1CCCN(C(=O)c2cnn(C)c2)C1 (stereo not shown) was Mtb cholesterol medium: -3.338%; Mtb glucose medium: 1.792%.
Result for Cc1ccccc1C(C#N)NC(=O)CCCOc1cccnc1 (stereo not shown) was Mtb cholesterol medium: -1.96% and 10.59%; Mtb glucose medium: 7.932%.
Result for CCOc1ncnc2c1CCN(S(=O)(=O)C1CC1)CC2 was Mtb cholesterol medium: -18.54%; Mtb glucose medium: -31.44% and -8.228%.
Result for O=C(NCCNc1ccc(C(F)(F)F)cn1)c1cc(Cl)ccc1F was Mtb cholesterol medium: 33.61%; Mtb glucose medium: 44.63%.
Result for COc1ccc(-c2nc(CN(C)Cc3nncn3C)c(C)o2)c(C)c1C was Mtb cholesterol medium: 48.48%; Mtb glucose medium: 62.67%.
Result for CN(C)CCn1c([C@H]2CCCO2)cc2cccnc21 was Mtb cholesterol medium: 12.18%; Mtb glucose medium: 21.57%.
Result for CNC(=O)C(CC(C)C)NC(=O)c1cccc(-c2nc(C)cs2)c1 (stereo not shown) was Mtb cholesterol medium: -14.93%; Mtb glucose medium: -19.13%.
Result for CN(C)c1nc(N)nc(CN2CCCC2c2ccsc2)n1 (stereo not shown) was Mtb cholesterol medium: -27.14%; Mtb glucose medium: 14.79%.
Result for COc1nsc2nc(C3CCCN3C(C)=O)ccc12 (stereo not shown) was Mtb cholesterol medium: -13.72% and -12.38%; Mtb glucose medium: -21.44%.
Result for O=C(O)C(F)(F)F.[H][C@@]12C[C@H](c3nc(C)no3)CN(Cc3ccc(F)cc3)[C@]1([H])CCO2 was Mtb cholesterol medium: 36.47%; Mtb glucose medium: 37.36%.
Result for CCC[C@@H]1CN(Cc2cc(C#N)n(C)c2C)C[C@H]1NS(C)(=O)=O was Mtb cholesterol medium: 0.4244%; Mtb glucose medium: 4.499%.
Result for O=C(O)C(F)(F)F.O=C(O)C(F)(F)F.O=C(O)C(F)(F)F.[H][C@@]12OCCN(Cc3cccnc3)[C@@]1([H])CC[C@H]2OCCN1CCCC1 was Mtb cholesterol medium: -4.911%; Mtb glucose medium: -24.07%.
Result for CCc1noc(CN(C)C(=O)c2ccccc2-c2ncn[nH]2)n1 was Mtb cholesterol medium: 11.88%; Mtb glucose medium: -3.717%.
Result for CN(Cc1ccc(N(C)C)cc1)C(=O)c1cc2c([nH]c1=O)CCCC2=O was Mtb cholesterol medium: -9.345%; Mtb glucose medium: -7.54%.
Result for COCCNC(=O)c1cc2c(c3ccccc3n2C)n1C(=O)N(C)C was Mtb cholesterol medium: -30.05%; Mtb glucose medium: -29.99%.
Result for CCO[C@H]1C[C@@H](O)C12CCN(C(=O)CC(F)(F)F)CC2 was Mtb cholesterol medium: -14.69%; Mtb glucose medium: 3.574%.
Result for OCc1cc2ccccc2nc1NCC1CC1 was Mtb cholesterol medium: 9.957%; Mtb glucose medium: 19.64%.
Result for CC(C#N)CNS(=O)(=O)c1ccc(Br)c(F)c1 (stereo not shown) was Mtb cholesterol medium: 1.251%; Mtb glucose medium: 11.44%.
Result for CC(C)Cc1nc(CSC2CCCN(c3cnn(C)c3)C2=O)no1 (stereo not shown) was Mtb cholesterol medium: -2.414%; Mtb glucose medium: 31.89%.
Result for [H][C@@]12CCN(C(=O)Cc3cccc(OC)c3)[C@]1([H])CCC(=O)N2CC was Mtb cholesterol medium: 21.53%; Mtb glucose medium: 4.93% and 3.321%.
Result for CC(C)c1noc(C(C)N2CCN(CCc3ccncc3)CC2)n1 (stereo not shown) was Mtb cholesterol medium: -11.62%; Mtb glucose medium: 9.441% and -17.69%.
Result for CCN1CC2(CCC1=O)CCN(C(=O)c1ccc(Cl)cc1O)CC2 was Mtb cholesterol medium: -3.001%; Mtb glucose medium: -3.958% and -6.355%.
Result for CCN1CCC(N2CCC(c3nc(C)cc(C)n3)C2)CC1 (stereo not shown) was Mtb cholesterol medium: 26.55%; Mtb glucose medium: 4.474%.
Result for NC(=O)c1cccc(CNC/C=C/c2ccccc2)c1 was Mtb cholesterol medium: -0.7075%; Mtb glucose medium: -0.5126% and 0.6498%.
Result for CC(C(=O)N1CCn2cncc2C1)N1CCCC1 (stereo not shown) was Mtb cholesterol medium: -12.71% and -5.26%; Mtb glucose medium: 31.85%.
Result for O=C(CCN1CCCN(c2nccs2)CC1)NCC1CCCCC1 was Mtb cholesterol medium: 1.593%; Mtb glucose medium: -12.03%.
Result for Cc1ccc2c(n1)N(C)CCN(Cc1ccco1)C2.O=C(O)C(F)(F)F.O=C(O)C(F)(F)F was Mtb cholesterol medium: 28.05%; Mtb glucose medium: 3.365% and 3.899%.
Result for Cc1nc(C)c(C(=O)NCCNC(=O)Cc2ccccc2)s1 was Mtb cholesterol medium: -13.11%; Mtb glucose medium: -2.631%.
Result for Cn1cc(C2CCCN2C(=O)CCCOc2ccc(F)cc2)cn1 (stereo not shown) was Mtb cholesterol medium: 5.772%; Mtb glucose medium: -30.88% and 0.4163%.

3 of the entries, repeated:

| compound | Mtb cholesterol medium | Mtb glucose medium |
|---|---|---|
| `Cc1nccn1CC1CCCN(C(=O)c2cnn(C)c2)C1` (stereo not shown) | -3.338 | 1.792 |
| `CC(C)c1noc(C(C)N2CCN(CCc3ccncc3)CC2)n1` (stereo not shown) | -11.62 | 9.441 and -17.69 |
| `CCO[C@H]1C[C@@H](O)C12CCN(C(=O)CC(F)(F)F)CC2` | -14.69 | 3.574 |

Data taken from ChEMBL document CHEMBL3988442, “University of Dundee, Small-Polar-MMV Screening Library” (2021).